Patent US20170247475A1
These are yes or no findings as the source states them, for the method shown. Binding calls can cover weak binding; strength is not graded here.

Target: cAng2 (cynomolgus monkey)
Assay: competition ELISA, blocking of cAng2 binding to cTie2

B1: ANGBII00003 (VHH)
bivalent VHH: EVQLVESGGGLVQVGDSLRLSCAASGRTFSTYLMVGWFRQAPGKEREFAAGIWSSGDTAYADSVRGRFTISRDNAKNTVYLQMNSLKTEDTAVYYCAGSYDGNYYIPGFYKDWGQGTLVTVSSGGGGSGGGSEVQLVESGGGLVQVGDSLRLSCAASGRTFSTYLMVGWFRQAPGKEREFAAGIWSSGDTAYADSVRGRFTISRDNAKNTVYLQMNSLKTEDTAVYYCAGSYDGNYYIPGFYKDWGQGTLVTVSS
**Q.** B1 was tested. Which binding did it give?
**A.** binds
